Consider six molecules from US20150174203A1.

Protein sequences, listed by entry. Tags and fused reporters are not part of them. Lines headed by an entry give the natural chain unless they say otherwise; changes in a name come on top.
UniProt Q6GTX8: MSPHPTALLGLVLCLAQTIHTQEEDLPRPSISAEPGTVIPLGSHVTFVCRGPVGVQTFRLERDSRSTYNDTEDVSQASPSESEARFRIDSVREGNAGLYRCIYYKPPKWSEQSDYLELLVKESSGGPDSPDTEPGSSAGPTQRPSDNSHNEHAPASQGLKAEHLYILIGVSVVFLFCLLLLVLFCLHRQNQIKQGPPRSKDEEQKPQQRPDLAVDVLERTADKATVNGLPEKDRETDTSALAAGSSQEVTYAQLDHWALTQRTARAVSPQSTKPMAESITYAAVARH

Assay [1] concerns the target human LAIR1 (human) (UniProt Q6GTX8). Put plainly: flow cytometry on human cord blood cells.
Assay [2] has the same target. Nature of the assay: flow cytometry on LAIR1-transfected 293T cells, anti-FLAG-APC and anti-LAIR1-PE. For orientation: Flow cytometry measures light scatter and fluorescence of single cells or particles in a stream.
Assay [3] has the same target. Nature of the assay: flow cytometry on LAIR1-overexpressing 293T cells.
Assay [4] has the same target. Nature of the assay: flow cytometry on transfected 293T cells.
A further assay has as its target LILRB4 (human). Nature of the assay: flow cytometry on transfected 293T cells.

Results are given in words; binding and its absence hold for the method and conditions named. For some assays here: A result given as binding can be weak or reduced; the word gives no strength. Sequences can lack the tags named with a protein.

B1: human Angptl-1 with FLAG tag at the C-terminus (ligand, not shown: small tags and cut ends)
chain: GQFKIKKINQRRYPRATDGKEEAKKCAYTFLVPEQRITGPICVNTKGQDASTIKDMITRMDLENLKDVLSRQKREIDVLQLVVDVDGNIVNEVKLLRKESRNMNSRVTQLYMQLLHEIIRKRDNSLELSQLENKILNVTTEMLKMATRYRELEVKYASLTDLVNNQSVMITLLEEQCLRIFSRQDTHVSPPLVQVVPQHIPNSQQYTPGLLGGNEIQRDPGYPRDLMPPPDLATSPTKSPFKIPPVTFINEGPFKDCQQAKEAGHSVSGIYMIKPENSNGPMQLWCENSLDPGGWTVIQKRTDGSVNFFRNWENYKKGFGNIDGEYWLGLENIYMLSNQDNYKLLIELEDWSDKKVYAEYSSFRLEPESEFYRLRLGTYQGNAGDSMMWHNGKQFTTLDRDKDMYAGNCAHFHKGGWWYNACAHSNLNGVWYRGGHYRSKHQDGIFWAEYRGGSYSLRAVQMMIKPID
As to B1, the binding entry is recorded as “binds” with human LAIR1 (human) [1]; “binds” with human LAIR1 (human) [2]; “binds” with human LAIR1 (human) [3]; “binds” with human LAIR1 (human) [4]; “no binding” in the assay with LILRB4 (human).

B2: human Angptl-7 with FLAG tag at the C-terminus (ligand, not shown: small tags and cut ends)
chain: QKLSKHKTPAQPQLKAANCCEEVKELKAQVANLSSLLSELNKKQERDWVSVVMQVMELESNSKRMESRLTDAESKYSEMNNQIDIMQLQAAQTVTQTSADAIYDCSSLYQKNYRISGVYKLPPDDFLGSPELEVFCDMETSGGGWTIIQRRKSGLVSFYRDWKQYKQGFGSIRGDFWLGNEHIHRLSRQPTRLRVEMEDWEGNLRYAEYSHFVLGNELNSYRLFLGNYTGNVGNDALQYHNNTAFSTKDKDNDNCLDKCAQLRKGGYWYNCCTDSNLNGVYYRLGEHNKHLDGITWYGWHGSTYSLKRVEMKIRPEDFKP
For B2, the binding entry with human LAIR1 (human) [1] is recorded as “binds”; with human LAIR1 (human) [2], “binds”; in the assay with human LAIR1 (human) [3] it was “binds”; with human LAIR1 (human) [4], “binds”; with LILRB4 (human) it was “no binding”.

B3: human Angptl-4 with FLAG tag at the C-terminus (ligand, not shown: small tags and cut ends)
chain: GPVQSKSPRFASWDEMNVLAHGLLQLGQGLREHAERTRSQLSALERRLSACGSACQGTEGSTDLPLAPESRVDPEVLHSLQTQLKAQNSRIQQLFHKVAQQQRHLEKQHLRIQHLQSQFGLLDHKHLDHEVAKPARRKRLPEMAQPVDPAHNVSRLHRLPRDCQELFQVGERQSGLFEIQPQGSPPFLVNCKMTSDGGWTVIQRRHDGSVDFNRPWEAYKAGFGDPHGEFWLGLEKVHSITGDRNSRLAVQLRDWDGNAELLQFSVHLGGEDTAYSLQLTAPVAGQLGATTVPPSGLSVPFSTWDQDHDLRRDKNCAKSLSGGWWFGTCSHSNLNGQYFRSIPQQRQKLKKGIFWKTWRGRYYPLQATTMLIQPMAAEAAS
In the case of B3, in the assay with LILRB4 (human), the binding result is reported as “no binding”.

B4: human Angptl-3 with FLAG tag at the C-terminus (ligand, not shown: small tags and cut ends)
chain: DQDNSSFDSLSPEPKSRFAMLDDVKILANGLLQLGHGLKDFVHKTKGQINDIFQKLNIFDQSFYDLSLQTSEIKEEEKELRRTTYKLQVKNEEVKNMSLELNSKLESLLEEKILLQQKVKYLEEQLTNLIQNQPETPEHPEVTSLKTFVEKQDNSIKDLLQTVEDQYKQLNQQHSQIKEIENQLRRTSIQEPTEISLSSKPRAPRTTPFLQLNEIRNVKHDGIPAECTTIYNRGEHTSGMYAIRPSNSQVFHVYCDVISGSPWTLIQHRIDGSQNFNETWENYKYGFGRLDGEFWLGLEKIYSIVKQSNYVLRIELEDWKDNKHYIEYSFYLGNHETNYTLHLVAITGNVPNAIPENKDLVFSTWDHKAKGHFNCPEGYSGGWWWHDECGENNLNGKYNKPRAKSKPERRRGLSWKSQNGRLYSIKSTKMLIHPTDSESFE
Take B4: the binding entry with LILRB4 (human) is listed as “no binding”.

B5: human Angptl-6 with FLAG tag at the C-terminus (ligand, not shown: small tags and cut ends)
chain: RAGAPRCTYTFVLPPQKFTGAVCWSGPASTRATPEAANASELAALRMRVGRHEELLRELQRLAAADGAVAGEVRALRKESRGLSARLGQLRAQLQHEAGPGAGPGADLGAEPAAALALLGERVLNASAEAQRAAARFHQLDVKFRELAQLVTQQSSLIARLERLCPGGAGGQQQVLPPPPLVPVVPVRLVGSTSDTSRMLDPAPEPQRDQTQRQQEPMASPMPAGHPAVPTKPVGPWQDCAEARQAGHEQSGVYELRVGRHVVSVWCEQQLEGGGWTVIQRRQDGSVNFFTTWQHYKAGFGRPDGEYWLGLEPVYQLTSRGDHELLVLLEDWGGRGARAHYDGFSLEPESDHYRLRLGQYHGDAGDSLSWHNDKPFSTVDRDRDSYSGNCALYQRGGWWYHACAHSNLNGVWHHGGHYRSRYQDGVYWAEFRGGAYSLRKAAMLIRPLKL
Turning to B5, the binding result with LILRB4 (human) is recorded as “no binding”.

B6: human Angptl-2 with FLAG tag at the C-terminus, mammalian-expressed (ligand, not shown: small tags and cut ends)
chain: QEDGFEGTEEGSPREFIYLNRYKRAGESQDKCTYTFIVPQQRVTGAICVNSKEPEVLLENRVHKQELELLNNELLKQKRQIETLQQLVEVDGGIVSEVKLLRKESRNMNSRVTQLYMQLLHEIIRKRDNALELSQLENRILNQTADMLQLASKYKDLEHKYQHLATLAHNQSEIIAQLEEHCQRVPSARPVPQPPPAAPPRVYQPPTYNRIINQISTNEIQSDQNLKVLPPPLPTMPTLTSLPSSTDKPSGPWRDCLQALEDGHDTSSIYLVKPENTNRLMQVWCDQRHDPGGWTVIQRRLDGSVNFFRNWETYKQGFGNIDGEYWLGLENIYWLTNQGNYKLLVTMEDWSGRKVFAEYASFRLEPESEYYKLRLGRYHGNAGDSFTWHNGKQFTTLDRDHDVYTGNCAHYQKGGWWYNACAHSNLNGVWYRGGHYRSRYQDGVYWAEFRGGSYSLKKVVMMIRPNPNTFH
Consider B6, for which the binding entry with LILRB4 (human) is on record as “no binding”.
